Source: PubChem BioAssay AID720706 (Broad Institute, 2013)
Some of the results follow. Some of these compounds have results that are not shown, active ones among them.

Assay: GFP drop in mixed WT/humanized-ribosome E. coli culture – GFP/RFP fluorescence, OD600, single point, bacterial rRNA inhibitor project, primary screen (AID 720706)
Conditions: E. coli WT GFP vs humanized-ribosome RFP mutants, 24 h; OD600 change: measured here: OD600 growth, DMSO median 0, no signal -100; RFP signal change: measured here: RFP humanized mutant strains, DMSO median 0, no signal -100, concentration not given here

| SMILES | OD600 change | RFP signal change |
| --- | --- | --- |
| CN1[C@@H]2CC[C@H]1CC(OC(=O)C(O)(c1ccccc1)c1ccccc1)C2 (some centres not stated) | 6.47% | 0.26% |
| O=C(NCC1(N2CCCCC2)CCCCC1)c1cc([N+](=O)[O-])ccc1Cl | 2.02% | 4.16% |
| Cc1ccc(C(=O)NCC2(N3CCCCC3)CCCCC2)cc1 | 8.3% | -2.77% |
| CCN(CC)CC(C)C(C)OC(=O)C(O)(c1ccccc1)c1ccccc1 (configuration not stated) | 6.71% | -2.32% |
| COc1cc(SC)ccc1C(=O)NCC1(N(C)C)CCCCC1 | 15.4% | -1.63% |
| Cc1ccccc1C(=O)NCC1(N2CCCCC2)CCCCC1 | -7.96% | 0.97% |
| CN(C)c1ccc(C(=O)NCC2(N(C)C)CCCCC2)cc1 | 14.2% | -3.84% |
| COc1ccc(C(=O)NCC2(N(C)C)CCCCC2)cc1 | 8.11% | -3.68% |
| Cc1cc(C(=O)NCC2(N3CCCCC3)CCCCC2)ccc1[N+](=O)[O-] | 13.1% | -2.5% |
| O=C(NCC1(N2CCCCC2)CCCCC1)c1cccc(Br)c1 | 2.94% | 0.467% |
| C=CCN1CCN(CCOC(=O)C(O)(c2ccccc2)c2ccccc2)CC1 | 13% | 2.3% |
| O=C(NCC1(N2CCCCC2)CCCCC1)c1cc(F)c(F)cc1Cl | -19.9% | -3.39% |
| COc1cc(C(=O)NCC2(N(C)C)CCCCC2)c([N+](=O)[O-])cc1OC | 20.3% | 0.0695% |
| CN(C)C1(CNC(=O)c2ccc(Br)cc2)CCCCC1 | 6.25% | -1.74% |
| O=C(NCC1(N2CCCCC2)CCCCC1)c1cccc(Cl)c1 | 3.77% | 0.61% |
| COc1cccc(C(=O)NCC2(N3CCCCC3)CCCCC2)c1 | 9.38% | 1.02% |
| COc1ccc(Cl)cc1C(=O)NCC1(N(C)C)CCCCC1 | 17.8% | 0.975% |
| CC(C)Oc1ccc(C(=O)NCC2(N(C)C)CCCCC2)cc1 | 18.6% | 1.69% |
| O=C(OCCN1CCCC1)C(O)(c1ccccc1)c1ccccc1 | 7.68% | -0.425% |
| C=C(C)C#CC(O)(C(=O)OC1CCN(C)CC1)c1ccccc1 (configuration not stated) | 11.2% | 2.83% |
| COc1ccc(Br)c(C(=O)NCC2(N3CCCCC3)CCCCC2)c1 | 3.31% | -0.935% |
